Data from article doi:10.1101/2021.08.05.455199.
Where two headings read alike, the source gives them in different places. No constants are given. Whether binding was seen depends on the method and setting. In cells and extracts the contact can be indirect. Some binding calls cover weakened binding; strength is not graded here. For part of these data: Where a sequence is shown, tags or fusion partners need not be part of it. One block for each molecule: values may come before it.

Chains of the proteins cited; added tags and fusions are not shown. Lines headed by an entry give the natural chain unless they say otherwise; changes in a name come on top.
UniProt Q9C9W9, whole entry: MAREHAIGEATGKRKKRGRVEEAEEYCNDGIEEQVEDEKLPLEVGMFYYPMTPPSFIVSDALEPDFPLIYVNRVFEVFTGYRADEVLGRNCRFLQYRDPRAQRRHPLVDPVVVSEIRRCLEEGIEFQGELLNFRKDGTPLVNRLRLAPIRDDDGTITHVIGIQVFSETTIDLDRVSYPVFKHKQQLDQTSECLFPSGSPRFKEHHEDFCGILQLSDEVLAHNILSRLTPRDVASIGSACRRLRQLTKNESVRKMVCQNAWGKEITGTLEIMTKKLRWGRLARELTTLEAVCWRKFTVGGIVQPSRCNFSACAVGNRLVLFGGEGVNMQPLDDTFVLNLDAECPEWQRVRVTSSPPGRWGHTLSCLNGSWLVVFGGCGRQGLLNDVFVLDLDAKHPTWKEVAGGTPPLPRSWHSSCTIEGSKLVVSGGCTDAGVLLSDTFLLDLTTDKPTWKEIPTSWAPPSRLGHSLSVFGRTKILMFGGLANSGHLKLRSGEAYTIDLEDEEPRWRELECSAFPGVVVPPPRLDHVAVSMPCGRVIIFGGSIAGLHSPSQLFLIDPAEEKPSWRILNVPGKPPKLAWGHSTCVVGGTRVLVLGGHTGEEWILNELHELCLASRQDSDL

Experiments:
[1] = target: T1, GIGANTEA tagged with HA (GI-HA) (Arabidopsis thaliana) (UniProt Q9SQI2); assay: co-IP
T1 sequence: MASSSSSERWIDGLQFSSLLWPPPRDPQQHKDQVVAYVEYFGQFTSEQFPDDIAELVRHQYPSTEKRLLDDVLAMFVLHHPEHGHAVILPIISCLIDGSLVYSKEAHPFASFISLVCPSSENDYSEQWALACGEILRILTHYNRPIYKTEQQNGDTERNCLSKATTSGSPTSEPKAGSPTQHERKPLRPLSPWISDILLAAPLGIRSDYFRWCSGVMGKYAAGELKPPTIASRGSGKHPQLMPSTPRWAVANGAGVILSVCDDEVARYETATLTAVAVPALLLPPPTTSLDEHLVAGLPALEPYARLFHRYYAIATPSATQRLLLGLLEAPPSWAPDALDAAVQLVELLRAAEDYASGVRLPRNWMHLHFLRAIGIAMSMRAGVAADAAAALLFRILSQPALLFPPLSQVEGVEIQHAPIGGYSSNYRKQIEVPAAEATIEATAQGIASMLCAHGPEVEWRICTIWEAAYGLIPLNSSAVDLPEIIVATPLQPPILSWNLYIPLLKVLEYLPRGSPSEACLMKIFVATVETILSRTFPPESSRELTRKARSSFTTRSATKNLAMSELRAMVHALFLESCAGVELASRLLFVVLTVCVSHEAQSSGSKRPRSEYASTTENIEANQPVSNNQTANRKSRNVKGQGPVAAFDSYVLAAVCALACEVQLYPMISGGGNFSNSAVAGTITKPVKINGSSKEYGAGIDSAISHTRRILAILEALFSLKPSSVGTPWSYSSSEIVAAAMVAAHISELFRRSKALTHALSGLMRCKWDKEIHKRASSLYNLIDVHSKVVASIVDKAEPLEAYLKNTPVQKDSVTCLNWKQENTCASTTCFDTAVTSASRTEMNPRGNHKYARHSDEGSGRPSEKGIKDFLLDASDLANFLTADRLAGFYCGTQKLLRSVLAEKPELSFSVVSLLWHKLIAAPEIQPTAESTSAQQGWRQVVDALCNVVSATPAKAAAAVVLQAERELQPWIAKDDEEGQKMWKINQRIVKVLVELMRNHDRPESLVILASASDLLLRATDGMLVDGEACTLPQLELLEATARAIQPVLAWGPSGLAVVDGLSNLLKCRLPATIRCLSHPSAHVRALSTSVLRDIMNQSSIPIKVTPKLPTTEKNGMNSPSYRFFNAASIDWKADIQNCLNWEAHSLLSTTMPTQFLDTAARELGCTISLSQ

[2] = target: T2, SOS2/CIPK24 protein kinase, BiFC fusion (Arabidopsis thaliana) (UniProt Q9LDI3); assay: split reporter
T2 sequence: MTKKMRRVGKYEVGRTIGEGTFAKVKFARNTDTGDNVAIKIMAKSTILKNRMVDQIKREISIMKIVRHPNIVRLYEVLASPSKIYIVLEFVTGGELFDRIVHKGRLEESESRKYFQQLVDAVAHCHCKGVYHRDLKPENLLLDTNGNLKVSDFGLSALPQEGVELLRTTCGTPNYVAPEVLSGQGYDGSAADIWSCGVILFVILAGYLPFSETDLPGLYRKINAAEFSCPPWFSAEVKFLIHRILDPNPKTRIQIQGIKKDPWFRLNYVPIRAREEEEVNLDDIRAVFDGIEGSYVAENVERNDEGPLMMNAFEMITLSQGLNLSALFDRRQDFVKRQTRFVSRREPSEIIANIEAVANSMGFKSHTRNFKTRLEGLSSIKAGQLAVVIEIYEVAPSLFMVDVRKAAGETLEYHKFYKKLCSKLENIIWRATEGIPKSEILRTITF

[3] = target: T3, GIGANTEA BiFC fusion (GI-VN) (Arabidopsis thaliana) (UniProt Q9SQI2); assay: split reporter
T3 sequence: T1 sequence

[4] = target: SOS3/CBL4 tagged with FLAG (SOS3-FLAG) (Arabidopsis thaliana) (UniProt O81223); assay: co-IP
[5] = target: SOS3-G2A fused to GFP (SOS3-G2A-GFP) (Arabidopsis thaliana) (UniProt O81223); assay: co-IP
[6] = target: SOS3/CBL4 tagged with FLAG (SOS3-FLAG) (Arabidopsis thaliana) (UniProt O81223); assay: co-IP; remark: listed apart in the source
[7] = target: SOS3-C3A fused to GFP (SOS3-C3A-GFP) (Arabidopsis thaliana) (UniProt O81223); assay: co-IP
[8] = target: SOS3/CBL4 fused to GFP (SOS3-GFP) (Arabidopsis thaliana) (UniProt O81223); assay: co-IP

Molecule: SOS3-C3A, BiFC fusion (from UniProt O81223 1-222)
binding [2]: binds
binding [3]: binds

Molecule: FKF1 (FLAVIN-BINDING, KELCH REPEAT, F-BOX 1) tagged with MYC (FKF1-MYC) (from UniProt Q9C9W9 1-619)
binding [4]: binds

Molecule: SOS3/CBL4 BiFC fusion (SOS3-VC) (from UniProt O81223 1-222)
binding [3]: binds

The remaining lines, values ahead:

binding [1]: binds
Molecule: SOS3/CBL4 tagged with MYC (SOS3-MYC) (from UniProt O81223 1-222)

binding [5]: binds
binding [6]: binds
binding [7]: binds
binding [8]: binds
B1: GIGANTEA tagged with HA (GI-HA) (protein, UniProt Q9SQI2 1-1173)
chain: T1 sequence
